The target of one assay is T1, myc-tagged TCF21 (human) (UniProt O43680).
T1 sequence: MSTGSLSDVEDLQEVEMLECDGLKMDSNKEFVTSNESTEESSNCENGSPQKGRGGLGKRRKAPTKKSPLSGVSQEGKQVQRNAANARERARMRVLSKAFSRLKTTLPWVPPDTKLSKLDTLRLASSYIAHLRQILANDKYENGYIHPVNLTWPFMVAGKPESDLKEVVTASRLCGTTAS
Kind of assay: co-IP; HEK293 cells transfected with myc-tagged TCF21 and non-tagged JUN plasmids; Nuclear complex Co-IP kit (Active Motif); IP with myc-tag or JUN antibody, western blot for the other protein.

Sequences of proteins named here, by UniProt entry; tags and fusion partners are left off.
UniProt P05412: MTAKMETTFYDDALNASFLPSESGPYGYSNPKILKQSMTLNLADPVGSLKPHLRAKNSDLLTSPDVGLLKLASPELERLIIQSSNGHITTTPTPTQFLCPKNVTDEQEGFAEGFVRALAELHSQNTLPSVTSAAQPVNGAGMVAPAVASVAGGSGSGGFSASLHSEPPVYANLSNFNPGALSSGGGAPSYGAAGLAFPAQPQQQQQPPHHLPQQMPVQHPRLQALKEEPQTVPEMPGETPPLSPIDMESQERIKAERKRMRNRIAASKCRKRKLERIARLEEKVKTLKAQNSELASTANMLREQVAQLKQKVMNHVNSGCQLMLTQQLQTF

The next assay concerns the target JUN (non-tagged) (human) (UniProt P05412). The assay is described as above.

The text below walks through data of article PMC6480881.

No constants are given. Whether binding was seen depends on the method and setting. Binding seen in cells or lysates may run through a third protein. Some results given as binding are weak or reduced against the parent protein; the word gives no strength. Sequences can lack the tags named with a protein.

Consider “JUN (non-tagged) (from UniProt P05412 1-331)”, for which, in the assay with myc-tagged TCF21 (human), the binding result was “binds”.

B1: myc-tagged TCF21 (protein, UniProt O43680 1-179)
chain: MSTGSLSDVEDLQEVEMLECDGLKMDSNKEFVTSNESTEESSNCENGSPQKGRGGLGKRRKAPTKKSPLSGVSQEGKQVQRNAANARERARMRVLSKAFSRLKTTLPWVPPDTKLSKLDTLRLASSYIAHLRQILANDKYENGYIHPVNLTWPFMVAGKPESDLKEVVTASRLCGTTAS
As for B1, in the assay with JUN (non-tagged) (human), the binding result is “binds”.
